Experimental data published in publication PMC5344418, “Directed evolution of a soluble human DR3 receptor for the inhibition of TL1A induced cytokine secretion” (PLoS ONE, 2017).
These are yes or no findings as the source states them, for the method shown. Some results given as binding are weak or reduced against the parent protein; the word gives no strength. Where a sequence is shown, tags or fusion partners need not be part of it.

How the values were obtained:
TL1A (Abcam) [1] = molecular target: T1, TL1A (Abcam) (UniProt O95150); assay: ELISA; plate coated with monoclonal mouse anti-TL1A antibody, then 0.6 ug/ml TL1A (Abcam); 100 ul medium of transfected HEK293T cells (48 or 72 h) added; detected with biotinylated goat anti-DR3 antibodies and streptavidin-peroxidase; only the target purified
T1 sequence: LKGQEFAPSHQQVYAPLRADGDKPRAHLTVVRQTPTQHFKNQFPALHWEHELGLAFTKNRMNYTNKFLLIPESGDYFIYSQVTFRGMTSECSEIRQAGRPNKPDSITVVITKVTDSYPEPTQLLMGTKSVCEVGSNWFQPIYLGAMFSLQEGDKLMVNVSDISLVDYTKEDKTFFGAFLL

TL1A (Abcam) [2] = molecular target: T1, TL1A (Abcam); assay: ELISA; plate coated with monoclonal mouse anti-TL1A antibody, then 0.6 ug/ml TL1A (Abcam); bought DR3-Fc (R&D Systems) added (2 ug/ml as positive control; five concentrations for the calibration curve); detected with biotinylated goat anti-DR3 antibodies and streptavidin-peroxidase; both purified

B1: native DR3-Fc (human DR3 extracellular domain fused with human IgG1 Fc) (Fc fusion, UniProt Q93038 25-199, looked up)
chain: QGGTRSPRCDCAGDFHKKIGLFCCRGCPAGHYLKAPCTEPCGNSTCLVCPQDTFLAWENHHNSECARCQACDEQASQVALENCSAVADTRCGCKPGWFVECQVSQCVSSSPFYCQPCLDCGALHRHTRLLCSRRDTDCGTCLPGFYEHGDGCVSCPTSTLGSCPERCAAVCGWRQ
modifications: N-linked glycosylation (shown by Endo-H cleavage)
notes: amplified from an EST cDNA clone (Open Biosystems); pFUSE vector (Invivogen); also called WT; soluble native DR3; source: HEK293T, transfected, conditioned medium (ELISA screen); 293F (HEK293F), transfected, purified (MonoQ, SP, butyl HIC); not shown: Fc (human IgG1), C-terminal, kept
TL1A (Abcam) [1]
  binding: binds

B2: DR3-Fc (R&D Systems) (Fc fusion, UniProt Q93038 25-199)
chain: QGGTRSPRCDCAGDFHKKIGLFCCRGCPAGHYLKAPCTEPCGNSTCLVCPQDTFLAWENHHNSECARCQACDEQASQVALENCSAVADTRCGCKPGWFVECQVSQCVSSSPFYCQPCLDCGALHRHTRLLCSRRDTDCGTCLPGFYEHGDGCVSCPTSTLGSCPERCAAVCGWRQ
TL1A (Abcam) [2]
  binding: binds
